{"source": "patent US12552835B2", "about": "“Composition comprising Regentide-012 or Regentide-013 for improving skin condition” (NINEBIOPHARM CO., LTD., priority 2020, dated 2026)", "type_in_all_cases": "cell-based, human", "key": {"CCD986Sk cells": {"tested_on": "CCD986Sk cells", "assay": "Fibroblast growth promoting efficacy (cell number)", "conditions": "0.5 μM, after 8 days", "protocol": "(§1) In order to confirm the cell proliferation abilities of Regentide-012 and Regentide-013, CCD986Sk cells, which are fibroblasts, were dispensed at 1×10^4 cells/well in a 6-well plate, and then cultured for 6 hours in a medium containing 10% FBS. Thereafter, Regentide-012 and Regentide-013 were added at various concentrations (0, 0.1, 0.2, or 0.5 μM) and cultured for 8 days. The medium was replaced with a medium containing Regentide-012 and Regentide-013 in various concentrations every day, and the number of cells was measured at intervals of two days."}, "CCD-986Sk": {"tested_on": "CCD-986Sk", "assay": "Wound recovery effect of fibroblasts (insert gap migration)", "conditions": "1 and 2.5 μM, FBS-free medium, 16 and 40 hours", "protocol": "(§2) In order to confirm the wound recovery effects of Regentide-012 and Regentide-013, CCD-986sk, which is dermal cells, was attached to a 6-well plate with an adhesive insert (Insert, Ibidi, Wisconsin, USA). The cells were dispensed at 6×10^4 cells/well in each well of the insert, and then cultured in cell culture conditions for 24 hours in a medium containing 2% FBS. Thereafter, the insert was removed and washed once using 1×DPBS. Regentide-034 was added to the medium at various concentrations (0, 1, and 2.5 μM) in an FBS-free medium, and cell images were measured at 100 times using a microscope (Nikon Eclipse E100, Tokyo, Japan) after 16 and 40 hours."}, "HaCaT cells [1]": {"tested_on": "HaCaT cells", "assay": "Epidermal keratinocyte growth promoting efficacy (cell number)", "conditions": "0.5 μM, after 8 days", "protocol": "as §1, with “HaCaT” for “CCD986Sk”, “epidermal keratinocytes,” for “fibroblasts,”"}, "HaCaT cells [2]": {"tested_on": "HaCaT cells", "assay": "Wound recovery effect of epidermal keratinocytes (insert gap migration)", "conditions": "1 and 2.5 μM, FBS-free medium, 16 and 40 hours", "protocol": "as §2, with “HaCaT cells,” for “CCD-986sk,”, “are epidermal keratinocytes, were” for “is dermal cells, was”, “Regentide-012 and Regentide-013 were” for “Regentide-034 was”, “photographed” for “measured”"}}, "note": "Part of at least one peptide drawing is inferred or uncertain, most often the ends. Where a SMILES comes first, the peptide text is derived from it. Bridges are numbered along the chain shown (N, C = ends).", "data": [{"smiles": "CC[C@H](C)[C@H](NC(=O)[C@H](CCC(N)=O)NC(=O)[C@H](CCC(=O)O)NC(=O)[C@@H](N)CCCCN)C(=O)NCC(=O)N[C@@H](CCCCN)C(=O)N[C@H]1CSSC[C@@H](C(=O)N[C@@H](CCCNC(=N)N)C(=O)N[C@@H](CCCNC(=N)N)C(=O)N[C@@H](CCCCN)C(=O)N[C@@H](CCCCN)C(=O)O)NC(=O)[C@H](Cc2c[nH]c3ccccc23)NC(=O)[C@H](CCCCN)NC(=O)[C@H](CCCNC(=N)N)NC(=O)CNC(=O)[C@H](CCCNC(=N)N)NC(=O)[C@H]([C@@H](C)O)NC(=O)[C@H](CO)NC1=O", "note": "[Regentide-012, KEQIGKCSTRGRKWCRRKK] (H-KEQIGKCSTRGRKWCRRKK-OH; disulfide 7-15)", "values": [{"measurement": "cell growth rate higher than the control group", "setting": "CCD986Sk cells", "result": 30.9, "unit": "%"}, {"measurement": "cell numbers and cell migration abilities of fibroblasts", "setting": "CCD-986Sk", "result": "increased the cell numbers and cell migration abilities"}, {"measurement": "cell growth rate higher than the control group", "setting": "HaCaT cells [1]", "result": 101.2, "unit": "%"}, {"measurement": "cell numbers and cell migration abilities of epidermal keratinocytes", "setting": "HaCaT cells [2]", "result": "increased the cell numbers and cell migration abilities"}]}]}
